Test [1] deals with T1, MAD1^ΔL-mNG (doxycycline-induced, Tet-On cassette) (human) (UniProt Q9Y6D9).
T1 sequence: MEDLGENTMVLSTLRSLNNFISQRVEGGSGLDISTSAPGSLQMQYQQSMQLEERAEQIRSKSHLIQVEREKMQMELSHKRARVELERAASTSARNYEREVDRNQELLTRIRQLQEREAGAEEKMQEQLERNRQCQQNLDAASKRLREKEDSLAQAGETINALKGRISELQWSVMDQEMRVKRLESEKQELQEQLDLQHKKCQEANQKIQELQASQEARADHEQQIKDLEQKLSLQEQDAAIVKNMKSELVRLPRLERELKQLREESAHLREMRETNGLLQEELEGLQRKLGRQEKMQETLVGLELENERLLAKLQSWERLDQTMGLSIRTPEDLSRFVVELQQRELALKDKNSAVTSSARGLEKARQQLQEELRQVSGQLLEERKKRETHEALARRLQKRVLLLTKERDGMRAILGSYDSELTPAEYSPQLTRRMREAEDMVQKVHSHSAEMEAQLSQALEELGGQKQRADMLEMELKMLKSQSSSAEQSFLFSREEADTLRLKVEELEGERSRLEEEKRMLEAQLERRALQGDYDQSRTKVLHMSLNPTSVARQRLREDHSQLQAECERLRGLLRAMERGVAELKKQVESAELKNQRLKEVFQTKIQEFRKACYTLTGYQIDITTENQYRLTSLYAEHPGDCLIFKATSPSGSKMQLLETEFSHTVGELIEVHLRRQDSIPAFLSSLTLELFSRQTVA
Briefly: co-IP; mNeonGreen-Trap agarose on cleared lysates of doxycycline-induced, thymidine-nocodazole arrested HeLa-A12 cells (endogenous MAD1 not knocked down); 75 mM HEPES pH 7.5, 150 mM KCl, 10% glycerol, 1% CHAPS in lysis; 4 °C; immunoblot. On the technique in general: In western blotting, separated proteins are transferred to a membrane and probed.

In test [2] the target is T2, MAD1-mNG (doxycycline-induced, Tet-On cassette) (human) (UniProt Q9Y6D9).
T2 sequence: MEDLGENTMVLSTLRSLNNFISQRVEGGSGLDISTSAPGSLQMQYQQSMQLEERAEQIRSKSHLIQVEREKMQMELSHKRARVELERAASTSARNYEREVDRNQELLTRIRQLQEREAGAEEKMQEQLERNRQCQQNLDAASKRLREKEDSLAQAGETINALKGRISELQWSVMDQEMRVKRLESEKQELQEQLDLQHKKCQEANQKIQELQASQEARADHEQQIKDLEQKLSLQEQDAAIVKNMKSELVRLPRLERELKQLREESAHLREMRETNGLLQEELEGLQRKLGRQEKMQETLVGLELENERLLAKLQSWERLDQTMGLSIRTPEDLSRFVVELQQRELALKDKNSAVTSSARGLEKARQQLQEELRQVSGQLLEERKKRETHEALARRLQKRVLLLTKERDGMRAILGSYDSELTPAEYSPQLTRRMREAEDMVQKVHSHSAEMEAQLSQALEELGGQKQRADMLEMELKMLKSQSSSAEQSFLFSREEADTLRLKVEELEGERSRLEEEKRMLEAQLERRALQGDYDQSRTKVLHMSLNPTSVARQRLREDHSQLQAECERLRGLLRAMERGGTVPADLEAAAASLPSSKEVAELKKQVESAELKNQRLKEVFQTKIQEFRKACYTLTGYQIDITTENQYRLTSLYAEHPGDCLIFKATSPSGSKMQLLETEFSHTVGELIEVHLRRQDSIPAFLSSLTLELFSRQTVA
The test is described as above.

No constants are given. Whether binding was seen depends on the method and setting. Binding seen in cells or lysates may run through a third protein. Some results given as binding are weak or reduced against the parent protein; the word gives no strength.

B1: endogenous MAD1 (protein, UniProt Q9Y6D9-1 1-718)
chain: MEDLGENTMVLSTLRSLNNFISQRVEGGSGLDISTSAPGSLQMQYQQSMQLEERAEQIRSKSHLIQVEREKMQMELSHKRARVELERAASTSARNYEREVDRNQELLTRIRQLQEREAGAEEKMQEQLERNRQCQQNLDAASKRLREKEDSLAQAGETINALKGRISELQWSVMDQEMRVKRLESEKQELQEQLDLQHKKCQEANQKIQELQASQEARADHEQQIKDLEQKLSLQEQDAAIVKNMKSELVRLPRLERELKQLREESAHLREMRETNGLLQEELEGLQRKLGRQEKMQETLVGLELENERLLAKLQSWERLDQTMGLSIRTPEDLSRFVVELQQRELALKDKNSAVTSSARGLEKARQQLQEELRQVSGQLLEERKKRETHEALARRLQKRVLLLTKERDGMRAILGSYDSELTPAEYSPQLTRRMREAEDMVQKVHSHSAEMEAQLSQALEELGGQKQRADMLEMELKMLKSQSSSAEQSFLFSREEADTLRLKVEELEGERSRLEEEKRMLEAQLERRALQGDYDQSRTKVLHMSLNPTSVARQRLREDHSQLQAECERLRGLLRAMERGGTVPADLEAAAASLPSSKEVAELKKQVESAELKNQRLKEVFQTKIQEFRKACYTLTGYQIDITTENQYRLTSLYAEHPGDCLIFKATSPSGSKMQLLETEFSHTVGELIEVHLRRQDSIPAFLSSLTLELFSRQTVA
Consider B1, for which the binding result in test [1] and in test [2] was “binds” throughout.

The record behind these values is publication PMC10024682.
